Results deposited as PubChem BioAssay AID1224828 (NIAID, 2016)
This is one part, drawn at random, of about 17,000 reagents. In the full data, 762 (4.5%) were called active. 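Active calls include both raised and lowered p65 entry, mostly lowered; wells with fewer than 50 cells lack a z-score.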 Raw values vary from plate to plate and are shown uncorrected. A reagent listed more than once was tested more than once; the source does not tell the runs apart.

Aim: 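Regulators linking TLR4 signalling to p65 nuclear translocation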 (primary screen)
Cells: mouse RAW264.7 G9 macrophage reporter cells (GFP-p65, Tnf promoter-mCherry)
Reagents: siRNA pool against mouse genes, 100 nM
Timing: 2 days siRNA transfection, then 40 min LPS before fixation
Conditions: LPS (Salmonella minnesota R595) at 10 ng/ml
Measurement: 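Imaged p65 nuclear translocation ratio, normalised to the plate median, converted to robust z-scores and averaged across two replicates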
Scale: p65 translocation robust z-score: higher = more nuclear NF-kappaB p65 after LPS than the plate median; nuclear/cytoplasmic p65 ratio: higher = more nuclear NF-kappaB p65
Hit rule: 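Called active when z exceeds 3.3 or falls under -1.56 (median of Tlr4 controls), giving activity score of at least 50; no calls for control wells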
Meaning of the calls: active = hit (p65 shift raised or lowered); inactive = no clear change

no.	gene symbol	p65 translocation robust z-score	nuclear/cytoplasmic p65 ratio, rep 1	nuclear/cytoplasmic p65 ratio, rep 2	low cell count flag	Outcome
1	9430015G10Rik (RIKEN cDNA 9430015G10 gene)		1.36	1.41	fewer than 50 cells per well; well left out of scoring	inactive
2	Micos13	3.03	1.82	1.84	enough cells to score	inactive
3	Tor1b (torsin family 1, member B)	0.58	1.34	1.25	enough cells to score	inactive
4	Or2aj5 (olfactory receptor family 2 subfamily AJ member 5)	0.07	1.65	1.4	enough cells to score	inactive
5	Tctn2 (tectonic family member 2)	0.61	1.39	1.29	enough cells to score	inactive
6	Dscc1		1.43	1.3	fewer than 50 cells per well; well left out of scoring	inactive
7	Snrpa (small nuclear ribonucleoprotein polypeptide A)		1.86	1.35	fewer than 50 cells per well; well left out of scoring	inactive
8	Dis3l2 (DIS3 like 3'-5' exoribonuclease 2)	-0.47	1.21	1.4	enough cells to score	inactive
9	Rbpj	0.19	1.6	1.49	enough cells to score	inactive
10	Mtf1 (metal response element binding transcription factor 1)	0.53	1.49	1.43	enough cells to score	inactive
11	Cxcl2 (C-X-C motif chemokine ligand 2)	1.35	1.65	1.78	enough cells to score	inactive
12	Ttc22 (tetratricopeptide repeat domain 22)		1.33	1.24	fewer than 50 cells per well; well left out of scoring	inactive
13	Sh3bgrl (SH3-binding domain glutamic acid-rich protein like)		0	1.26	fewer than 50 cells per well; well left out of scoring	inactive
14	Pou4f2 (POU domain, class 4, transcription factor 2)	-0.99	1.18	1.28	enough cells to score	inactive
15	Itpr2 (inositol 1,4,5-triphosphate receptor 2)	0.7	1.57	1.6	enough cells to score	inactive
16	Epn3 (epsin 3)		1.04	1.21	fewer than 50 cells per well; well left out of scoring	inactive
17	Clec1b (C-type lectin domain family 1, member b)	-1.19	1.53	1.23	enough cells to score	inactive
18	Myom2 (myomesin 2)	0.48	1.79	1.72	enough cells to score	inactive
19	Rnf138 (ring finger protein 138)	0.52	1.49	1.34	enough cells to score	inactive
20	St8sia4 (ST8 alpha-N-acetyl-neuraminide alpha-2,8-sialyltransferase 4)		1.42	1.19	fewer than 50 cells per well; well left out of scoring	inactive
21	Cxcl14 (C-X-C motif chemokine ligand 14)	-0.74	1.32	1.33	enough cells to score	inactive
22	Or5p50 (olfactory receptor family 5 subfamily P member 50)		1.72	1.38	fewer than 50 cells per well; well left out of scoring	inactive
23	Hmgn2 (high mobility group nucleosomal binding domain 2)	-0.06	1.4	1.39	enough cells to score	inactive
24	Or5b104 (olfactory receptor family 5 subfamily B member 104)		1.48	1.23	fewer than 50 cells per well; well left out of scoring	inactive
25	Txndc16 (thioredoxin domain containing 16)	-0.55	1.34	1.34	enough cells to score	inactive
26	Nell2 (NEL-like 2)	-0.25	1.78	1.53	enough cells to score	inactive
27	Skic2 (SKI2 subunit of superkiller complex)	-0.66	1.34	1.18	enough cells to score	inactive
28	Ctnnal1 (catenin alpha like 1)	-0.24	1.51	1.28	enough cells to score	inactive
29	Agtr2 (angiotensin II receptor, type 2)	-0.67	1.57	1.31	enough cells to score	inactive
30	Agtr2 (angiotensin II receptor, type 2)	-0.08	1.51	1.55	enough cells to score	inactive
31	Fbxo24 (F-box protein 24)	-0.01	1.32	1.5	enough cells to score	inactive
32	Anxa3 (annexin A3)	0.98	1.83	1.71	enough cells to score	inactive
33	Pax7 (paired box 7)	-0.55	1.33	1.18	enough cells to score	inactive
34	Ubox5 (U box domain containing 5)	0.38	1.7	1.65	enough cells to score	inactive
35	Foxo3 (forkhead box O3)	0.12	1.41	1.42	enough cells to score	inactive
36	Grhl2 (grainyhead like transcription factor 2)	1.45	1.42	1.35	enough cells to score	inactive
37	Ubap2 (ubiquitin-associated protein 2)	-1.85	1.41	1.1	enough cells to score	active
38	Rab17 (RAB17, member RAS oncogene family)	2	1.69	1.9	enough cells to score	inactive
39	Egln2 (egl-9 family hypoxia-inducible factor 2)	0.01	1.43	1.4	enough cells to score	inactive
40	Ndufv1 (NADH:ubiquinone oxidoreductase core subunit V1)	-1.24	1.58	1.41	enough cells to score	inactive
41	Calhm5 (calcium homeostasis modulator family member 5)	-1.52	1.29	1.66	enough cells to score	inactive
42	Nr2e1 (nuclear receptor subfamily 2, group E, member 1)	-0.48	1.46	1.28	enough cells to score	inactive
43	Or4k77 (olfactory receptor family 4 subfamily K member 77)	1.73	1.75	1.75	enough cells to score	inactive
44	Zfp608 (zinc finger protein 608)	2.29	1.62	1.49	enough cells to score	inactive
45	Ddit4l (DNA-damage-inducible transcript 4-like)	0.34	1.6	1.62	enough cells to score	inactive
46	Pou5f1 (POU domain, class 5, transcription factor 1)	-0.85	1.46	1.3	enough cells to score	inactive
47	Noc4l (NOC4 like)	-0.21	1.45	1.79	enough cells to score	inactive
48	Fam228b (family with sequence similarity 228, member B)	0.36	1.32	1.58	enough cells to score	inactive
49	S100a14 (S100 calcium binding protein A14)	-0.05	1.53	1.49	enough cells to score	inactive
50	Shfl (shiftless antiviral inhibitor of ribosomal frameshifting)	1.85	1.21	1.79	enough cells to score	inactive
51	Slc16a8	0.75	1.54	1.31	enough cells to score	inactive
52	Lage3 (L antigen family, member 3)		1.23	1.31	fewer than 50 cells per well; well left out of scoring	inactive
53	Lima1 (LIM domain and actin binding 1)	-1.42	1.37	1.54	enough cells to score	inactive
54	Zswim2 (zinc finger SWIM-type containing 2)		1.74	0.903	fewer than 50 cells per well; well left out of scoring	inactive
55	Tmprss3 (transmembrane protease, serine 3)	1.03	1.68	1.65	enough cells to score	inactive
56	Tm9sf1 (transmembrane 9 superfamily member 1)	0.89	1.48	1.34	enough cells to score	inactive
57	Dntt (deoxynucleotidyltransferase, terminal)	0.06	1.43	1.44	enough cells to score	inactive
58	Apoo (apolipoprotein O)	0.91	1.6	1.63	enough cells to score	inactive
59	Rpl37 (ribosomal protein L37)	-0.86	1.37	1.42	enough cells to score	inactive
60	Cyp2c65 (cytochrome P450, family 2, subfamily c, polypeptide 65)	-2.04	1.17	1.14	enough cells to score	active
61	Rnase1 (ribonuclease, RNase A family, 1 (pancreatic))	1.19	1.57	1.35	enough cells to score	inactive
62	Mettl16 (methyltransferase 16, N6-methyladenosine)	-1.4	1.26	1.27	enough cells to score	inactive
63	Aspdh (aspartate dehydrogenase domain containing)	0.37	1.6	1.49	enough cells to score	inactive
64	Adgrf4 (adhesion G protein-coupled receptor F4)	0.37	1.55	1.62	enough cells to score	inactive
65	Cebpa (CCAAT/enhancer binding protein alpha)		1.06	1.06	fewer than 50 cells per well; well left out of scoring	inactive
66	Tmem130 (transmembrane protein 130)	-1.73	1.15	1.33	enough cells to score	active
67	Timd4 (T cell immunoglobulin and mucin domain containing 4)	0.76	1.6	1.73	enough cells to score	inactive
68	Arhgdig (Rho GDP dissociation inhibitor gamma)	-0.05	1.59	1.63	enough cells to score	inactive
69	Nkx3-2 (NK3 homeobox 2)	-0.59	1.52	1.53	enough cells to score	inactive
70	Nr1d1 (nuclear receptor subfamily 1, group D, member 1)	-2.15	1.14	1.15	enough cells to score	active
71	Dnaaf10 (dynein axonemal assembly factor 10)	0.87	1.46	1.84	enough cells to score	inactive
72	Kmt2a (lysine (K)-specific methyltransferase 2A)	-0.64	1.26	1.35	enough cells to score	inactive
73	Mid1 (midline 1)	0.95	1.51	1.52	enough cells to score	inactive
74	Gm9801 (predicted gene 9801)		1.28	1.65	fewer than 50 cells per well; well left out of scoring	inactive
75	Or5d39 (olfactory receptor family 5 subfamily D member 39)	-2.06	1.39	1.23	enough cells to score	active

Not a retest: 9 of the entries above.
no.	gene symbol	p65 translocation robust z-score	nuclear/cytoplasmic p65 ratio, rep 1	nuclear/cytoplasmic p65 ratio, rep 2	low cell count flag	Outcome
23	Hmgn2 (high mobility group nucleosomal binding domain 2)	-0.06	1.4	1.39	enough cells to score	inactive
24	Or5b104 (olfactory receptor family 5 subfamily B member 104)		1.48	1.23	fewer than 50 cells per well; well left out of scoring	inactive
25	Txndc16 (thioredoxin domain containing 16)	-0.55	1.34	1.34	enough cells to score	inactive
26	Nell2 (NEL-like 2)	-0.25	1.78	1.53	enough cells to score	inactive
27	Skic2 (SKI2 subunit of superkiller complex)	-0.66	1.34	1.18	enough cells to score	inactive
28	Ctnnal1 (catenin alpha like 1)	-0.24	1.51	1.28	enough cells to score	inactive
29	Agtr2 (angiotensin II receptor, type 2)	-0.67	1.57	1.31	enough cells to score	inactive
30	Agtr2 (angiotensin II receptor, type 2)	-0.08	1.51	1.55	enough cells to score	inactive
31	Fbxo24 (F-box protein 24)	-0.01	1.32	1.5	enough cells to score	inactive
